{
  "source": "patent US20050288355A1",
  "about": "“Combination therapy wherein a serotonin reuptake inhibitor is used” (priority 2002, published 2005)",
  "test_system": "5-HT levels in rat ventral hippocampus",
  "assay": "Microdialysis of brain serotonin levels, ventral hippocampus",
  "type": "in vivo",
  "conditions": "local application of bicuculline 50 μM; citalopram 10 μmol/kg s.c.; P=0.0567",
  "procedure": "Male albino rats of a Wistar-derived strain (285-320 g; Harlan, Zeist, The Netherlands) were used for the experiments. Upon surgery, rats were housed individually in plastic cages (35×35×40 cm), and had free access to food and water. Animals were kept on a 12 h light schedule (light on 7:00 a.m.). The experiments are concordant with the declarations of Helsinki and were approved by the animal care committee of the faculty of mathematics and natural science of the University of Groningen.\nMicrodialysis of brain serotonin levels was performed using home made I-shaped probes, made of polyacrylonitrile/sodium methyl sulfonate copolymer dialysis fiber (i.d. 220 μn, o.d. 0.31 μm, AN 69, Hospal, Italy). Preceding surgery rats were anaesthetised using isoflurane (O2/N2O; 300/300 ml/min). Lidocaine-HCl, 10% (m/v) was used for local anaesthesia. […]\nTwenty-μl microdialysate samples were injected via an autoinjector (CMA/200 refrigerated microsampler, CMA, Sweden) onto a 100×2.0 mm C18 Hypersil 3 μm column (Bester, Amstelveen, the Netherlands) and separated with a mobile phase consisting of 5 g/L di-ammoniumsulfate, 500 mg/L EDTA, 50 mg/L heptane sulphonic acid, 4% methanol v/v, and 30 μl/L of triethylamine, pH 4.65 at a flow of 0.4 ml/min (Shimadzu LC-10 AD). 5-HT was detected amperometrically at a glassy carbon electrode at 500 mV vs Ag/AgCl (Antec Leyden, Leiden, The Netherlands). […]",
  "note": "For at least one compound, name, drawing or mass did not settle the structure.",
  "data": [
    {"smiles": "CN1CCc2cc3c(cc2[C@H]1[C@@H]1OC(=O)c2c1ccc1c2OCO1)OCO3", "note": "[bicuculline, (+)-Bicuculline]", "values": [
      {"measurement": "effect on the increase established by citalopram", "value": "not affected"}
    ]}
  ]
}
